# Results of single-concentration screens

From ChEMBL document CHEMBL3988442, “University of Dundee, Small-Polar-MMV Screening Library” (2021).

The filed quantity is “Percent Effect” (%). The record does not define 0% and 100%; most values in the screen are far below 50% and negative numbers occur (in some assays of this library far below -100). Compounds were drawn at random from those tested, without regard to their results.

T. brucei: 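Whole-parasite assay of Trypanosoma brucei over 72 hours; the read-out is not stated. Compounds at 30 µM. The record gives no direction; compounds that gave an IC50 in retests scored well above the rest, so higher reads as stronger inhibition. Values scatter widely below zero; nearly all retest evidence comes from the higher of the two concentrations used. Of about 64,000 compounds tested this way, about 940 (1.5%) reached 50% or more in at least one test.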
Toxoplasma: 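Assay of Toxoplasma gondii numbers, read through their beta-galactosidase reporter with a colour substrate. Concentration: 10 µM. Higher reads as fewer parasites (inferred from which compounds were picked for retests). About 67,000 compounds were tested under these conditions; 0.38% (about 260) showed 50% or more at least once.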

{"structure": "NCC1(c2cccc(C(F)(F)F)c2)CCCC1", "T. brucei": -21.27, "Toxoplasma": -1.79}
{"structure": "COc1cccc(OC)c1-c1c[nH]c(C)n1", "T. brucei": -12.98, "Toxoplasma": -1.486}
{"structure": "Cc1cc(C)c2nc(CN3CCC(CN)C3)cc(O)c2c1", "stereo": "centres undefined", "T. brucei": -15.81, "Toxoplasma": -6.672}
{"structure": "COc1ccc(C(C)NCc2ccc(OC)c(OC)c2OC)cc1F.Cl", "stereo": "centres undefined", "T. brucei": 25.23, "Toxoplasma": 8.256}
{"structure": "COCCN1CCN(CC(=O)N(C)Cc2ccc(C)o2)CC1C", "stereo": "centres undefined", "T. brucei": -1.805, "Toxoplasma": 0.1291}
{"structure": "COCC(=O)N1CCN(CC2CC2)c2ncccc2C1", "T. brucei": -11.67, "Toxoplasma": 4.756}
{"structure": "O=C(C1CCOCC1)N1CCc2onc(COc3cccnc3)c2C1.O=C(O)C(F)(F)F", "T. brucei": -638.1, "Toxoplasma": 6.138}
{"structure": "[H][C@]12CC[C@]([H])(CC(=O)NC1)N2C(=O)CCCc1ccc(Cl)cc1", "T. brucei": -2.431, "Toxoplasma": -11.93}
{"structure": "CCc1csc(C2CCCN(C(=O)c3ccc4[nH]nnc4c3)C2)n1", "stereo": "centres undefined", "Toxoplasma": -6.574}
{"structure": "Cc1nc(CN2CCCC(CCc3ccccc3F)C2)c[nH]1", "stereo": "centres undefined", "T. brucei": -5.303, "Toxoplasma": -5.172}
{"structure": "COC1CN(C(=O)NCC(N)=O)CCC(=O)N(C)c2ccccc21", "stereo": "centres undefined", "T. brucei": -26.28, "Toxoplasma": -16.29}
{"structure": "Cc1cccc(CN2C(=O)CCC23CCN(C(=O)NC(C)C)CC3)n1.O=C(O)C(F)(F)F", "T. brucei": -47.32, "Toxoplasma": -20.19}
{"structure": "Cc1nc(C(=O)N2CCCC(c3cc(C(F)(F)F)[nH]n3)C2)c[nH]1", "stereo": "centres undefined", "T. brucei": -12.25, "Toxoplasma": -5.265}
{"structure": "CCOc1cc(NC(=O)NCCn2cnnc2CC)ccc1C", "T. brucei": -16.7, "Toxoplasma": -3.001}
{"structure": "O=C(Cn1cnc2ccsc2c1=O)c1ccc2c(c1)OCCO2", "T. brucei": 4.256, "Toxoplasma": 2.065}
{"structure": "CCN1CC(C(=O)N2CCc3cc(C(N)=O)n(C)c3C2)CCC1=O", "stereo": "centres undefined", "Toxoplasma": -1.304}
{"structure": "COc1ccc(Cn2cc(C(=O)N(C)Cc3cnccn3)nn2)cc1", "T. brucei": 2.761, "Toxoplasma": -10.42}
{"structure": "O=C(CSc1ccc2c(c1)OCCO2)NS(=O)(=O)c1ccccc1Br", "T. brucei": -23.72, "Toxoplasma": 9.475}
{"structure": "Cc1ccc(C(C)NC(=O)CNCCn2cccn2)cc1C", "stereo": "centres undefined", "T. brucei": 2.157, "Toxoplasma": 15.47}
{"structure": "Cc1ncc(CN2CCC(c3nc(O)cc(-c4ccsc4)n3)CC2)cn1", "T. brucei": -9.406, "Toxoplasma": -4.789}
{"structure": "CN(c1ccc(Cl)c(C(=O)NCCCN2CCOCC2)c1)S(C)(=O)=O", "T. brucei": -34.65, "Toxoplasma": 8.705}
{"structure": "CCc1nnc2n1CCN(CC(O)c1ccc3c(c1)OCCO3)C2", "stereo": "centres undefined", "Toxoplasma": -30.98}
{"structure": "CCc1ccc(CN(CC)Cc2ccc(S(=O)(=O)NC)cc2)cc1", "T. brucei": 3.484, "Toxoplasma": -22.2}
{"structure": "Cc1nnc2n1CCN(C(=O)CN1C(=O)CCOc3ccccc31)C2", "T. brucei": -11.78, "Toxoplasma": -0.8974}
{"structure": "CN1CCN(S(=O)(=O)c2ccc(Cl)c(Cl)c2)c2cnccc21", "T. brucei": -17.47, "Toxoplasma": -1.097}
{"structure": "Cc1csc(N2CCCN(C(=O)Cc3cccs3)CC2)n1", "T. brucei": -18.45, "Toxoplasma": 21.2}
{"structure": "CSCC1CCCN(c2ncnc3oc(C)nc23)C1", "stereo": "centres undefined", "T. brucei": -29.78, "Toxoplasma": -0.0833}
{"structure": "OCC1(NCc2cnc(-c3cccs3)s2)CCOCC1", "T. brucei": -2.907, "Toxoplasma": 1.462}
{"structure": "CCOc1ncccc1CNC(=O)Nc1cc(C)nn1C", "T. brucei": -15.45, "Toxoplasma": 1.054}
{"structure": "CN(C)CCNC(=O)c1ccn(-c2ccc3ccccn23)n1.O=C(O)C(F)(F)F", "T. brucei": 37.24, "Toxoplasma": -0.4162}
{"structure": "CN(C)Cc1nnc(C2CCCN(c3nc(C(N)=O)cs3)C2)n1C", "stereo": "centres undefined", "T. brucei": 13.85, "Toxoplasma": 1.969}
{"structure": "CS(=O)(=O)NCC1CCCN(C(=O)c2ccc(F)c(F)c2)C1", "stereo": "centres undefined", "T. brucei": -25.29, "Toxoplasma": 34.77}
{"structure": "COc1cccc(CN(C)C(C)c2nccs2)c1OCCn1ccnc1", "stereo": "centres undefined", "T. brucei": -3.952, "Toxoplasma": 4.931}

The first 2 entries again:

NCC1(c2cccc(C(F)(F)F)c2)CCCC1 read T. brucei: -21.27%; Toxoplasma: -1.79%.
COc1cccc(OC)c1-c1c[nH]c(C)n1 read T. brucei: -12.98%; Toxoplasma: -1.486%.